Measurements: patent publication US12280072B2, “Oligosaccharide compound for inhibiting intrinsic coagulation factor X-enzyme complex, and preparation method therefor and uses thereof” (Jiuzhitang Co., Ltd., priority 2017, dated 2025)
Some results were stated once for a whole list of compounds, not compound by compound.

System: inferior vena cava thrombosis
Test: Anti-venous thrombosis experiment (rabbit brain powder infusion plus ligation)
Format: in vivo, SD rats
Settings: rats, sc., dose of 5 mg/kg˜10 mg/kg, modeling 1 hour after administration
Experimental: Grouping and Administration: Rats were randomly divided into 8 groups with 8 animals in each group. The experimental groups and the dose of the animals in each group were (1) natural saline (NS) control group; (2) LMWH 4.0 mg/kg group; (3) A2 2.5 mg/kg group; (4) A2 group 5.0 mg/kg; (5) A2 10 mg/kg group; (6) D1 2.5 mg/kg group; (7) D1 5.0 mg/kg group; (8) D1 10 mg/kg group. The rats in each group were administered subcutaneously (sc.) into the back, and the administration volume was 1 mL/kg. The modeling experiment was performed 1 hour after administration. A New Zealand rabbit was sacrificed, and the rabbit brain was taken out immediately. Rabbit brain powder infusion was prepared according to the literature method (Thromb Haemost, 2010, 103(5): 994-1004), and stored at −20° C. for use. […] The femoral vein was injected with 2% rabbit brain powder infusion (1 mL/kg). After 20 seconds, the lower margin of the left renal vein was ligated. After the operation, the viscera was placed back into the abdominal cavity and covered with medical gauze (infiltrated with natural saline). […] The length of the thrombus was measured, and the wet weight of the thrombus was weighed and then dry weight was weighed after drying at 50° C. for 24 h. The SPSS software was used to organize and analyze the data, and the measurement data were expressed as mean±standard deviation (x±s). […]

Question: How did the “inhibition rate of thrombosis” value turn out when CC(=O)NC(CO)C(OC1OC(C(=O)O)C(OC2OC(COS(=O)(=O)O)C(OS(=O)(=O)O)C(OC3OC(C(=O)O)C(OC4OC(COS(=O)(=O)O)C(OS(=O)(=O)O)C(OC5OC(C(=O)O)=CC(OC6OC(C)C(OS(=O)(=O)O)C(O)C6OS(=O)(=O)O)C5O)C4NC(C)=O)C(OC4OC(C)C(OS(=O)(=O)O)C(O)C4OS(=O)(=O)O)C3O)C2NC(C)=O)C(OC2OC(C)C(OS(=O)(=O)O)C(O)C2OS(=O)(=O)O)C1O)C(OS(=O)(=O)O)C(O)COS(=O)(=O)O [Compound A2, L-Fuc2S4S-(α1,3)-ΔUA-(α1,3)-{D-GaNAc4S6S-(β1,4)-[L-Fuc2S4S-(α1,3)]-D-GlcA-(β1,3)}n+1-D-GalNAc4S6S-ol] was run?
Answer: Its value is “above 70%”.
